{"source": "patent US20060025458A1", "about": "“Alkylammonium compounds as antifungal and antitrypanosomal agents” (University of Connecticut, priority 2004, published 2006)", "key": {"[1]": {"tested_on": "P. falciparum", "conditions": "Vial, et al. 1984; read-out: IC50, Plasmodium proliferation; cited from earlier work"}, "[2]": {"tested_on": "C. albicans strain BWP17", "experiment": "Growth inhibition of C. albicans in vitro", "assay_type": "cell-based, Candida albicans", "conditions": "inhibited at higher concentrations", "protocol": "G15, E24 and C35 inhibited at higher concentrations (>10 μM)."}, "[3]": {"tested_on": "promastigote form of L. major", "experiment": "Growth inhibition of Leishmania major promastigotes", "assay_type": "cell-based", "conditions": "ranking of most effective drugs", "protocol": "For those drugs, IC50 values were determined."}}, "note": "For part of these data: For at least one compound, name, drawing or mass did not settle the structure. Some compounds share one wording; it may come from a single statement. Some entries share one result that the patent states for a list of compounds.", "data": [{"compound": "1-aziridine ethanol", "values": [{"measurement": "IC50", "setting": "[1]", "result": "50 to 80", "unit": "µM"}]}, {"compound": "CCCCCCCCCCCC[N+]1(C)CCCC1.[Br-]", "note": "[E24]", "values": [{"measurement": "concentration inhibiting C. albicans", "setting": "[2]", "result": "> 10", "unit": "µM"}]}, {"compound": "CCCCCCCCCCCC[N+](C)(C)CCO.[Br-]", "note": "[F4]", "values": [{"measurement": "IC50 range in words", "setting": "[3]", "result": "in the low μM range"}]}]}
